Experimental data published in patent publication US20120296403A1, “METHODS AND COMPOUNDS FOR MUSCLE GROWTH” (NOVARTIS AG, priority 2010, published 2012).
At least one structure is not confirmed: it was looked up by name or label, or the drawing left a doubt.

Test system: IRS1
Test: IRS1 degradation / protein stability in C2C12 myotubes (Western blotting)
Type: cell-based, mouse
Details: 10 nM IGF1, data not shown
Description: Differentiated C2C12 myotubes are treated with increasing concentration of IGF1 or dexmethasome (DEX), a glucocorticoid that can lead to muscle atrophy, along with protein synthesis inhibitor Emetin (Eme). […] In C2C12 myotubes, IRS1 is rapidly degraded upon IGF1 treatment with a half-life of around 2 hours (FIGS. 4B and 4E).
Cells are washed twice with warm serum free DMEM and starved in serum free DMEM for 4 hours with an exchange of fresh medium in the middle. Then the signaling inhibitors are added to pretreat cells for 30 min before incubation with freshly prepared inhibitors with 10 nM IGF1 (the R3 form, Sigma, St. Louis, Mo.) or 10 μM Emetin (Sigma, St. Louis, Mo.) or 20 μM MG132 (Alexis Biochemicals, Carlsbad, Calif.) as specified for an additional 5 hours. […] Protein concentrations of the supernatants are determined by BCA Protein Assay Kit (Pierce/Thermo Fisher Scientific, Rockford, Ill.). […] Immunoreactivity is detected by ECL and exposed to film or Kodak Image Station 4000R (Eastman Kodak Company, Rochester, N.Y.). Densitometry is analyzed using Kodak Molecular Imaging software, version 4.0.
Cells are washed twice with warm serum-free DMEM and starved in serum-free DMEM for 4 hours with an exchange of fresh medium in the middle. […] The supernatants are analyzed by western blotting.

SMILES	rescue of IRS1 degradation by signaling inhibitors
COC[C@H]1OC(=O)c2coc3c2[C@@]1(C)C1=C(C3=O)[C@@H]2CCC(=O)[C@@]2(C)C[C@H]1OC(C)=O [wortmannin]	cannot be rescued
CO[C@H]1C[C@@H]2CC[C@@H](C)[C@@](O)(O2)C(=O)C(=O)N2CCCC[C@H]2C(=O)O[C@H]([C@H](C)C[C@@H]2CC[C@@H](O)[C@H](OC)C2)CC(=O)[C@H](C)/C=C(\C)[C@@H](O)[C@@H](OC)C(=O)[C@H](C)C[C@H](C)/C=C/C=C/C=C/1C [rapamycin]	cannot be rescued
